Some of the results follow. Single values are uncertain, as repeats are few or missing.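 Imaging used 1,536-well plates; nuclei positive for cleaved PARP by antibody were divided by total DNA-stained nuclei to yield the apoptosis fraction. Doses for screening kept most cells viable, and cell lines differ markedly in resting and induced cleaved-PARP levels.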
Tested on: SkMel28
Assay: cleaved PARP positive nuclei fraction relative to DMSO control; melanoma cells; higher = more apoptosis
Conditions: library dose: low library concentration; 72 h

SMILES	cleaved PARP positive nuclei fraction
O=C(Nc1cc(C(F)(F)F)cc(C(F)(F)F)c1)c1cc(Cl)ccc1O + Cn1cnc2c(F)c(Nc3ccc(Br)cc3Cl)c(C(=O)NOCCO)cc21 [selumetinib] (first compound 0.016 µM, partner dose 0.015 µM)	148%
Cc1ccc(Nc2nccc(N(C)c3ccc4c(C)n(C)nc4c3)n2)cc1S(N)(=O)=O [Pazopanib] + CC(=O)c1c(C)c2cnc(Nc3ccc(N4CCNCC4)cn3)nc2n(C2CCCC2)c1=O [palbociclib] (first compound 0.4 µM, partner dose 0.04 µM)	76.3%
CC[C@]1(O)C[C@H]2CN(CCc3c([nH]c4ccccc34)[C@@](C(=O)OC)(c3cc4c(cc3OC)N(C=O)[C@H]3[C@@](O)(C(=O)OC)[C@H](OC(C)=O)[C@]5(CC)C=CCN6CC[C@]43[C@@H]65)C2)C1 [vincristine] + C#Cc1cccc(Nc2ncnc3cc(OCCOC)c(OCCOC)cc23)c1 [erlotinib] (first compound 0.0001 µM, partner dose 0.8 µM)	138%
N#CC[C@H](C1CCCC1)n1cc(-c2ncnc3[nH]ccc23)cn1 [ruxolitinib] + O=C(O)[C@@H]1[O][Sb](=[O])([O][Sb]2(=[O])[O][C@H]([C@H](O)CO)[C@H](O)[C@H](C(=O)O)[O]2)[O][C@H]([C@H](O)CO)[C@@H]1O [stibogluconate] (first compound 1 µM, partner dose 2 µM)	136%
Cc1cn(-c2cc(NC(=O)c3ccc(C)c(Nc4nccc(-c5cccnc5)n4)c3)cc(C(F)(F)F)c2)cn1 [nilotinib] + CC(=O)O[C@@]12CO[C@@H]1C[C@H](O)[C@@]1(C)C(=O)[C@H](O)C3=C(C)[C@@H](OC(=O)[C@H](O)[C@@H](NC(=O)OC(C)(C)C)c4ccccc4)C[C@@](O)([C@@H](OC(=O)c4ccccc4)[C@H]21)C3(C)C [Docetaxel] (first compound 0.2 µM, partner dose 0.0001 µM)	237%

Reference: the supplement of paper PMC4604168 (melanoma cell lines)
